Results are given in words; binding and its absence hold for the method and conditions named. In cells and extracts the contact can be indirect. A yes stands for co-enrichment or nearness to the bait. Other partners may have been found.
Biological target: Plexin-A1, endogenous in mouse bone marrow cell-derived PDC (mouse) (UniProt P70206)
Assay: co-immunoprecipitation with antibody to membrane molecule (A) from mouse bone marrow-derived PDC, band identified by mass spectrometry

By UniProt entry, the sequences of proteins in these tests, tags left out. Residues count along the entry.
UniProt P70206, residues 28-1894: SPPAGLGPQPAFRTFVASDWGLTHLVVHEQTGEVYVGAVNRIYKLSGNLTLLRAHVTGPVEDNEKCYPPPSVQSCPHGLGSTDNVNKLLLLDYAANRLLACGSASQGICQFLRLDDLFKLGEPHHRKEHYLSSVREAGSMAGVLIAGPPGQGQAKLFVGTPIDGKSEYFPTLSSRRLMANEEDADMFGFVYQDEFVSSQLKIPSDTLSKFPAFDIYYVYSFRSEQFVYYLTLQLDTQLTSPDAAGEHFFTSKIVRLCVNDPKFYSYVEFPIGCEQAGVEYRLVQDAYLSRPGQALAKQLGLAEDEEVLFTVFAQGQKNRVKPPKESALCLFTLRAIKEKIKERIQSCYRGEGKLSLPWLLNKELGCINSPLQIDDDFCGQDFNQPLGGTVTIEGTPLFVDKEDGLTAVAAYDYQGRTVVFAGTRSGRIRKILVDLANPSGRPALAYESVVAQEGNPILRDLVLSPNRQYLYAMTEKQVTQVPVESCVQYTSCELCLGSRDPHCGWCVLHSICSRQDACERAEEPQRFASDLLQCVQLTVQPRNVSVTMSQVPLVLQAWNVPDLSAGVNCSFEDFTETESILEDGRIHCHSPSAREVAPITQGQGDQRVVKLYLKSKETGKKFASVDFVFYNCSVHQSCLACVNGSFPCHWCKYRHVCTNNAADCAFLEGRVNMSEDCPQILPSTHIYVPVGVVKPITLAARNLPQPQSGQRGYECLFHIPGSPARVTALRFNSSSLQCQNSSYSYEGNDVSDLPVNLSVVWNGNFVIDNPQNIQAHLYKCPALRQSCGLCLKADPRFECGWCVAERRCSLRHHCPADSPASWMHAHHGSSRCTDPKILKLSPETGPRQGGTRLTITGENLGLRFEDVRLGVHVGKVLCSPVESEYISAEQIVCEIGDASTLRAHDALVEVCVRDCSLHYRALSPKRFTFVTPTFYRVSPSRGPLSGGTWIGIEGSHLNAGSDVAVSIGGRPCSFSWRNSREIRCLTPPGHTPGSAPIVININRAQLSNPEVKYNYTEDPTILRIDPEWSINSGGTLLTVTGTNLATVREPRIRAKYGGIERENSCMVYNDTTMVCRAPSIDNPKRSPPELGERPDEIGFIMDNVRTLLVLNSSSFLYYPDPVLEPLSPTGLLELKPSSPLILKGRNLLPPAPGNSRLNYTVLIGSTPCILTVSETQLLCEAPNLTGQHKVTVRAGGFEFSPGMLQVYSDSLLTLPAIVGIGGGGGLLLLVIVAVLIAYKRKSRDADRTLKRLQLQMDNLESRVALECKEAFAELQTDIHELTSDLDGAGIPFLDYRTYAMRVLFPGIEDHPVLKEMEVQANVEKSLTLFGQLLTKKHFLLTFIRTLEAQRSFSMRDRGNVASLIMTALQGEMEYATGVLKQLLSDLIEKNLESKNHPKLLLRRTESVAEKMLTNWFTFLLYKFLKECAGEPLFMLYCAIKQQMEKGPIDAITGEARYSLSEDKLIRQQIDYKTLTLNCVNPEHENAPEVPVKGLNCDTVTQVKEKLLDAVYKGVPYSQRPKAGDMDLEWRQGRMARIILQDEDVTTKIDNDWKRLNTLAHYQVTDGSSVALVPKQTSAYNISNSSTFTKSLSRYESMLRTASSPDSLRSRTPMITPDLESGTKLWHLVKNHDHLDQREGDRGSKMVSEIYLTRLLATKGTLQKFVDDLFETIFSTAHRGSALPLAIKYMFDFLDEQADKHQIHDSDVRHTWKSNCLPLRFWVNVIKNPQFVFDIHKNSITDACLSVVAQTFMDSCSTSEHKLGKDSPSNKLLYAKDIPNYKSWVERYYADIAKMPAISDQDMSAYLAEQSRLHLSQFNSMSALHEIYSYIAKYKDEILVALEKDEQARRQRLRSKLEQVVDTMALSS

binding: binds
B1: membrane molecule (A) of the present invention (PDC-TREM), mouse, full length (receptor)
chain: QNPELLRTQEGETVSVTCWYDSLYHSSEKIWCKQIDNLCYPFVSKSAEKPRFLIQQSSRFNFFTVTMTKLKMSDSGIYHCGIVANNTSVYLRNIHLVVSKGSSVVSTPDIIPATRLTKLPTLITTKHSPSDTTTTRSLPQPTTVVSSPDPRVIIINGTDADRGFVSSVTIPVVCGLLSKTLVFTVLFIVTQKSFGRQAMKAHNSNS
